Laboratory results from patent US20240158515A1, “ANTI-FGFR3 ANTIBODIES AND ANTIGEN-BINDING FRAGMENTS AND METHODS OF USE THEREOF” (Regeneron Pharmaceuticals, Inc., priority 2022, published 2024).

Columns and labels:
Assay type in all cases: cell-based, murine
[1] = test system: BaF3 cells expressing FGFR3 S249C/V557L; assay: BaF3 proliferation assay, FGFR3 S249C/V557L; settings: FIG. 12A right
Procedure: (§1) IL-3 dependent murine pro B cell line BaF3 cells were engineered to stably express full length human FGFR3b S249C, V557L, V557M, S249C/V557L, S249C/V557M (accession number for WT FGFR3b NP_001156685.1, amino acids M1-T808). Cells were maintained in RPMI 1640+10% FBS+P/S/G+1 ng/ml mouse IL-3+500 ug/ml Neomycin; 37° C. 5% CO2. For proliferation assays, cells were washed with IL-3-free culture media and plated at 10^5 cells/well into 96-well black wall tissue culture plates. Cells were treated with 1:3 serially diluted antibody as indicated in the presence or absence of 5 μg/ml heparin and 1 nM human FGF1. After addition of antibodies, cells were incubated at 37° C./5% CO2 for 72 h followed by the addition of an equal volume of CellTiter-Glo™ (Promega) reagent to lyse cells and detect luciferase activity. Luminescence signal was quantitated with Envision plate reader (PerkinElmer). EC50 values of the antibodies were determined using GraphPad Prism software.

[2] = test system: BaF3 cells expressing FGFR3 S249C; assay: BaF3 proliferation assay, FGFR3 S249C (TKI resistance study); settings: Mus musculus, 72 h, CellTiter-Glo, FIG. 12A left, read-out: IC50, growth of BaF3 cells expressing FGFR3 S249C
Procedure: as §1

[3] = test system: BaF3 cells expressing FGFR3 S249C/V557M; assay: BaF3 proliferation assay, FGFR3 S249C/V557M; settings: FIG. 12B
Procedure: as §1

- IC50 [2]: 1.2 nM
Compound: COc1cc(OC)cc(N(CCNC(C)C)c2ccc3ncc(-c4cnn(C)c4)nc3c2)c1 [erdafitinib]
- growth inhibition of BaF3 cells expressing FGFR3 S249C+V557L (in words) [1]: ineffective
- growth inhibition of BaF3 cells expressing FGFR3 S249C+V557M (in words) [3]: ineffective
